# Earlier results, collected in patent US9492398B2, “Nanocapsulation of essential oils for preventing or curing infectious diseases alone or with an antibiotic” (Eydo Pharma, priority 2011, dated 2016).
# Conditions: from the literature; cited from earlier work
smiles,measurement,value
O=C(O)c1cn(C2CC2)c2cc(N3CCNCC3)c(F)cc2c1=O [Ciprofloxacin],LD50 in mice by intraperitoneal injection,1165 mg/kg
